Consider 1 compound from patent US20090269796A1, “METHODS OF DETECTING AND TREATING MYOCARDIAL ISCHEMIA AND MYOCARDIAL INFARCTION” (THE GENERAL HOSPITAL CORPORATION, priority 2007, published 2009).

Each structure is given as a SMILES string.

This series in a line: Control cohort: elective diagnostic cardiac catheterization without MI, plasma metabolite changes. It is filed as in vivo, human. The note with it: 10-minute or 60-minute time points, P<0.01.

Take `N[C@@H](Cc1ccc(O)cc1)C(=O)O` [tyrosine]: the “Change with cardiac catheterization alone” value is “associated with changes”.
